# Test results from publication PMC11394911.
# Results are given in words; binding and its absence hold for the method and conditions named. Binding calls can cover weak binding; strength is not graded here. For part of these data: Binding seen in cells or lysates may run through a third protein. For part of these data: Where a sequence is shown, tags or fusion partners need not be part of it.
# B1: NubG-PPI1 (full-length proton pump interactor 1) (protein, UniProt O23144 1-612)
# chain: MGVEVVNSGGFEVAPAPFEGKPEKNGKLDQGKGDDAPINFGSVGELPKNAEENNNKVVNSDAPKNAAEEWPVAKQIHSFYLVKYRSYADPKIKAKLDLADKELEKLNKARTGVLDKLRAKRAERSELFDLLDPLKSERKGFNTMFDEKRKEMEPLQQALGKLRSNDGGSARGPAICSSEEELNSMIYSYQYRIQHESIPLTEEKQILKEIRLLEGTRDKVIANAAMRAKIKESMGQKDDIQGQVKLMGAGLDGVKKERQAISARINELSEKLKATKDEITVLENELKTVSEKRDKAYSNIHDLRRQRDETNSEYYQNRTVLNKARDLAAQKNISELEALANAEVEKFISLWCSKKNFREDYEKRILQSLDSRQLSRDGRMRNPDEKPLIAPEAAPSKATPSETEVVPKAKAKPQPKEEPVSAPKPDATVAQNTEKAKDAVKVKNVADDDDDEVYGLGKPQKEEKPVDAATAKEMRKQEEIAKAKQAMERKKKLAEKAAAKAAIRAQKEAEKKEKKEQEKKAKKKTGGNTETETEEVPEASEEEIEAPVQEEKPQKEKVFKEKPIRNRTRGRGPETIPRAILKRKKSTNYWVYAAPAALVVLLLLVLGYYYVL
# B2: PPI1 (full length, BiFC fusion) (protein, UniProt O23144 1-612)
# chain: B1 chain
# B3: NubG-PPI1Δ1-358aa (domain or fragment, UniProt O23144 359-612)
# chain: EDYEKRILQSLDSRQLSRDGRMRNPDEKPLIAPEAAPSKATPSETEVVPKAKAKPQPKEEPVSAPKPDATVAQNTEKAKDAVKVKNVADDDDDEVYGLGKPQKEEKPVDAATAKEMRKQEEIAKAKQAMERKKKLAEKAAAKAAIRAQKEAEKKEKKEQEKKAKKKTGGNTETETEEVPEASEEEIEAPVQEEKPQKEKVFKEKPIRNRTRGRGPETIPRAILKRKKSTNYWVYAAPAALVVLLLLVLGYYYVL
# B4: cEYFP-PPI1Δ1-358aa (domain or fragment, UniProt O23144 359-612)
# chain: B3 chain
# B5: NubG-PPI2 (protein, UniProt B3H4K7 1-589)
# chain: MGAQIILSEGFEVVPPPEMNDLVLFGSNQSVSSCDVSTVTTEDGTVFSGDSSPGGATEEDFPEEKPFSFYFVKQPAYDDPEIKAKIDEAGHEINRYNKDRIVVSNAQESEKAEILSLFGQMKSLVSKSEGYRVVIEEKKMEFDALHESLRNLRCSTSDQLCFSKEELDHLIYIAHYQIEHGSIGFEEEDWVLKETEKADGIVLSEDSLAEKEASINRVKSMAVELNEVKKELDAITWKINHLSDKVGKSQNNLRVLDVKKAHILEERDRSYERIKMLRIQRDKGKAAFYQSLPVMRKARELAASGNVRDLEVFASSEADRFMTQWNDDKAFRDDYVKRISPSLCERQLNQDGRIKDPEVQVVWEKKVPVKGGEKVHETNREDSSSNSSQYGSVITDKRKKETRKKAMDFNRSSAEESDVTDLEFSVYEKPKKEEEEVDEETLKEREREEQLEKARLAMERKRKLQEKAAAKAAIRAQKEAEKKLKECEKKAKKKAAANSSSPSESDHSQEVTKDLEKVRTLAVSGKEKHQKERSLFPKQRSFRYKHRGRGTEALPKAILNRRKAHKYWVWGLSSAALAVALFLVVLLLR
# B6: PPI2 (BiFC fusion) (protein, UniProt B3H4K7 1-589)
# chain: B5 chain
# What was measured:
# [1] = target: Cub-XopLXcc (Xanthomonas campestris pv. campestris 8004); assay: two-hybrid; split-ubiquitin yeast two-hybrid, point-to-point co-transformation of yeast NMY51; Cub fusions (pDHB1) as bait, NubG fusions (pPR3N) as prey; growth on selective medium (-TLHA) and lacZ (X-gal) activity, 30 °C
# [2] = target: nEYFP-XopLXcc (Xanthomonas campestris pv. campestris 8004); assay: split reporter; BiFC with nEYFP and cEYFP fusions in transfected Arabidopsis protoplasts; YFP fluorescence detected after 8 h by confocal microscopy
binder,measurement,setting,value
B1,binding,[1],binds
B2,binding,[2],binds
B3,binding,[1],binds
B4,binding,[2],binds
B5,binding,[1],no binding
B6,binding,[2],no binding
